{"source": "paper PMC10231839", "about": "“A glycan receptor kinase facilitates intracellular accommodation of arbuscular mycorrhiza and symbiotic rhizobia in the legume Lotus japonicus” (PLOS Biology, 2023)", "binders": {"B1": {"name": "Arabidopsis thaliana chitin receptor CERK1 ectodomain (domain or fragment, UniProt A8R7E6 24-232)", "chain": "KCRTSCPLALASYYLENGTTLSVINQNLNSSIAPYDQINFDPILRYNSNIKDKDRIQMGSRVLVPFPCECQPGDFLGHNFSYSVRQEDTYERVAISNYANLTTMESLQARNPFPATNIPLSATLNVLVNCSCGDESVSKDFGLFVTYPLRPEDSLSSIARSSGVSADILQRYNPGVNFNSGNGIVYVPGRDPNGAFPPFKSSKQDGVGA", "modifications": "N-glycosylated"}}, "molecular_target": "Arabidopsis thaliana chitin receptor CERK1 ectodomain (Arabidopsis thaliana) (UniProt A8R7E6)", "assay": "SEC; final purification step, HiLoad Superdex 75 16/600 pg, PBS pH 7.4, 500 mM NaCl; mass estimated from the elution volume; both purified", "note": "These are yes or no findings as the source states them, for the method shown."}
{"binder": "B1", "values": [{"measurement": "binding", "result": "no binding"}]}
